Experimental data from PubChem BioAssay AID1671190 (National Center for Advancing Translational Sciences (NCATS), 2021).
The campaign covered roughly 580,000 compounds. About 6,100 (1.1%) were called active. The shares of active, inactive and inconclusive entries below differ from those in the screen. The call rests on the fitted dose curve; in most records, active means well fitted inhibition curve with a large enough effect; inconclusive means small, poorly fitted or top-dose-only effect, or another doubt; inactive means no such curve, though single readings can be large or run the other way. Where the call is inconclusive, the potency comes from a doubtful curve fit.
On the % scale 0 is the no-effect control and ±100 the full control effect; potency means the concentration at half of the fitted maximal effect.

Amino acid sequences for entries named in this document (tags omitted). A change or cut given only in a name is not applied to a line headed by its entry.
UniProt P18054: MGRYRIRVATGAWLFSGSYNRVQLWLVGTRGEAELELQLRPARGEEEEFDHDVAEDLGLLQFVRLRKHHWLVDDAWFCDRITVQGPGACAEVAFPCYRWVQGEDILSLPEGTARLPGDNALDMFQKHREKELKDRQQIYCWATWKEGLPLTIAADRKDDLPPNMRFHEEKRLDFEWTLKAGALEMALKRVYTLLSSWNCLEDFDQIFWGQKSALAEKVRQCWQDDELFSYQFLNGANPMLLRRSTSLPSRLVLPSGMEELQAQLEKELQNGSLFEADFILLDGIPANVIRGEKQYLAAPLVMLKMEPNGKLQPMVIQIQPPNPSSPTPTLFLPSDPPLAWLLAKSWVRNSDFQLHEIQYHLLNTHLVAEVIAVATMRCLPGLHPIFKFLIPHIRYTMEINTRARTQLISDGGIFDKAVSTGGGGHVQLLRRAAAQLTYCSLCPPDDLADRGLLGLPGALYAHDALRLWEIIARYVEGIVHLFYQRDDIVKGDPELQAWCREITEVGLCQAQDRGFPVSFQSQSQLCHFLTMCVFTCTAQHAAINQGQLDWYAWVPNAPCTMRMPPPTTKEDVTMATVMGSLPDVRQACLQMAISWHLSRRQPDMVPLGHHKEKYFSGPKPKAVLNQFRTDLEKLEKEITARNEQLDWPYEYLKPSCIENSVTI

The compounds below were run against Polyunsaturated fatty acid lipoxygenase ALOX12 (Homo sapiens) (UniProt P18054) (assay: Primary qHTS assay for inhibitors of human arachidonate 12S-lipoxygenase (ALOX12): Round 2). Details: purified 12hLO, xylenol orange hydroperoxide absorbance; activity change, negative = inhibition: at 108 µM (top of the series) unless noted.
Method in brief: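 Hydroperoxide product was detected by ferrous iron/xylenol orange as the 573 to 405 nm absorbance ratio. Arachidonic acid at 40 uM (final) was turned over for 30 min at room temperature by 150 nM human 12hLO, pH 7.0 Hepes buffer, after 15 min compound preincubation.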
With `COc1ccc(CNC(=O)c2[nH]c(C(F)(F)F)nc2-c2ccccc2)cc1OC` the Potency was inconclusive: 79.4 µM [inhibitor, single point].
In the case of `CCCN1CCN(c2ncnc3sc(C(=O)Nc4ccc(N(CC)CC)cc4C)c(C)c23)CC1`, the Potency is reported as inconclusive: 70.8 µM [inhibitor, partial curve, poor fit].
With `Cc1noc([C@@H]2CC(F)(F)CN2C(=O)c2n[nH]c3ccccc23)n1` the Potency was inconclusive: 14.1 µM [inhibitor, full curve, poor fit].
With `CCOc1ccc(-n2c(=O)[nH]cc(C(=O)N3CCc4ccccc43)c2=O)cc1` the Potency was inconclusive: 112 µM [inhibitor, single point].
For `COc1cccc(C(CC(=O)Nc2cccc(-c3ccno3)c2)n2cccc2)c1` (centres undefined), the Potency was inconclusive: 63.1 µM [inhibitor, partial curve, poor fit].
For `CCOC(=O)[C@]12CCC=C1N(Cc1ccc(Cl)cc1Cl)C(=O)[C@H](CC(=O)NCCC(C)C)C2`, the Potency was inconclusive: 112 µM [inhibitor, single point].
In the case of `O=C(c1cc(-c2cccc(Cl)c2)on1)N1CCOCC1`, the “activity change, negative = inhibition” value is reported as inactive: 6.23%.
`O=C1/C(=C/c2cnc(-c3ccccc3)nc2)CS(=O)(=O)c2ccccc21` was tested, and the Potency was inconclusive: 1.26 µM [inhibitor, full curve, poor fit].
In the case of `O=[N+]([O-])c1cccc(NC(=S)Nc2nc(-c3ccc(Cl)cc3Cl)cs2)c1`, the Potency is reported as inconclusive: 31.6 µM [inhibitor, single point].
For `CCOc1cc2c(C#N)c(N3CCCCC3)nc(N)c2c(N)n1`, the “activity change, negative = inhibition” value was inactive: 18.6%.
In the case of `CCOC(=O)c1sc2nc(C)nc(N3CCN(S(=O)(=O)c4ccccc4)CC3)c2c1C`, the “activity change, negative = inhibition” value is reported as inactive: -22.1%.
For `Cc1cccc(Nc2nc(-c3cc4ccccc4oc3=O)cs2)c1`, the Potency was active: 39.8 µM.
In the case of `CCCCCN(Cc1ccc(F)cc1)C(=O)Nc1ccc(N(C)C)nc1`, the Potency is reported as inconclusive: 100 µM [inhibitor, single point].
With `CC[C@@H](C)[C@H](NS(=O)(=O)c1cccc2ccccc12)C(=O)N[C@H](C=O)Cc1c[nH]c2ccccc12` the Potency was inconclusive: 44.7 µM [inhibitor, partial curve, poor fit].
For `CC(C)C[C@H]1CNC(=O)C(=O)N1C[C@H]1CCCN1C[C@H](Cc1ccc(O)cc1)N1C[C@H](CC(C)C)N(CC2CCCCCC2)C(=O)C1=O`, the Potency was inconclusive: 70.8 µM [inhibitor, partial curve, poor fit].
`O=C(CCCCn1c(=O)c2ccccc2n(Cc2ccc(F)cc2Cl)c1=O)NCc1ccco1` was tested, and the “activity change, negative = inhibition” value was inactive: -22.7%.
With `CCN(CC)S(=O)(=O)c1ccc2c(c1)CC(C(=O)NCCc1ccc(SC)cc1)N2C(C)=O` (centres undefined) the “activity change, negative = inhibition” value was inactive: 18%.
In the case of `CCOC1(OCC)C(c2ccc(N)cc2)C(C#N)(C#N)C1(OCC)OCC` (centres undefined), the “activity change, negative = inhibition” value is reported as inactive: 13.4%.
For `Cc1cc(C)nc(NC(=O)c2ccc(Br)s2)n1`, the “activity change, negative = inhibition” value was inactive: 3.46%.
For `CC1CCCC/C1=N\NC(=S)Nc1ccccc1C(F)(F)F` (centres undefined), the Potency was inconclusive: 10 µM [inhibitor, full curve, poor fit].
In the case of `C[C@]12CC[C@@H]3c4ccc(O)cc4CC[C@H]3[C@@H]1C[C@@H](O)[C@@H]2O`, the Potency is reported as “inactive”.
`O=C(Nc1ccccc1)Nc1ccc(-c2ccc(C(=O)[C@H]3CCC[C@H]3C(=O)O)cc2)cc1` was tested, and the activity change, negative = inhibition was inconclusive: -32.1% [inhibitor] [at 57.4 µM].
`CCOC(=O)c1cc(-c2ccc(/C=N\n3cnnc3)o2)ccc1Cl` was tested, and the “activity change, negative = inhibition” value was inactive: 30.5%.
For `COc1ccc(OC)c(C(=O)NC(CC(N)=O)c2ccc(NCC3CC3)c([N+](=O)[O-])c2)c1` (centres undefined), the “activity change, negative = inhibition” value was inactive: 1.66%.
In the case of `CCOC(=O)c1c(NC(=O)C2C3CCC(O3)C2C(=O)O)sc(C)c1-c1ccc(C)cc1` (centres undefined), the Potency is reported as inconclusive: 7.08 µM [inhibitor, partial curve, poor fit].
With `Cc1cc(SCC(=O)c2ccc(O)c(O)c2)n2nc(C)c(-c3ccccc3)c2n1` the Potency was active: 39.8 µM.
In the case of `CCN(CC)c1nc2ccccc2nc1C(=O)Nc1cccc(OC)c1`, the Potency is reported as inconclusive: 112 µM [inhibitor, partial curve, poor fit].
`CCOC(=O)C1=C(C(F)(F)F)NC2(O)c3ccccc3C(=O)C12O` (centres undefined) was tested, and the Potency was inconclusive: 89.1 µM [inhibitor, partial curve, poor fit].
With `Cc1nc(CCNC(=O)C2CNCCO2)sc1C` (centres undefined) the Potency was active: 8.91 µM.
For `CN(Cc1ccccc1)Cc1cn([C@H]2CO[C@H]3[C@@H]2OC[C@@H]3NCc2ccco2)nn1`, the Potency was inconclusive: 112 µM [inhibitor, partial curve, poor fit].
In the case of `CCCCOc1ccc(C(=O)C(CCC(CNC(C)(C)C)C(=O)c2ccc(OCCCC)cc2)CNC(C)(C)C)cc1` (centres undefined), the Potency is reported as inconclusive: 35.5 µM [inhibitor, partial curve, poor fit].
For `Cc1cc(C)cc(NS(=O)(=O)c2csc(C(N)=O)c2)c1`, the “activity change, negative = inhibition” value was inactive: 20.9%.
In the case of `Cc1ncccc1C(=O)N1CCC(Oc2ccc(-c3noc(-c4ccccc4)n3)cc2)C1` (centres undefined), the Potency is reported as inconclusive: 56.2 µM [inhibitor, single point].
With `Cc1ccc(C(=O)NCCN2CCC(n3c(=O)[nH]c4ccccc43)CC2)cc1C` the Potency was inconclusive: 79.4 µM [inhibitor, single point].
In the case of `Cc1cc(Nc2ccc(F)cc2F)n2ncnc2n1`, the Potency is reported as inconclusive: 31.6 µM [inhibitor, single point].
`Clc1cccc(N2CCN(c3nnnn3-c3ccccc3)CC2)c1` was tested, and the “activity change, negative = inhibition” value was inactive: -7.79%.
In the case of `O=C(Cn1ncc2c1-c1ccccc1OC2)N1CCN(c2cccc(Cl)c2)CC1`, the “activity change, negative = inhibition” value is reported as inactive: -7.49%.
In the case of `CCOC(=O)c1c(-c2ccc(C)o2)csc1NC(=O)CN1CCN(CC)CC1`, the Potency is reported as inconclusive: 1.12 µM [inhibitor, full curve, poor fit].
`CCOc1ccc(NC(=O)C2CC(=O)NC(Nc3ccc(OCC)cc3)=N2)cc1` (centres undefined) was tested, and the Potency was inconclusive: 31.6 µM [inhibitor, single point].
`Cc1ccccc1OCc1nc2c3c(ncn2n1)Oc1cc(O)ccc1C3c1ccccc1` (centres undefined) was tested, and the “activity change, negative = inhibition” value was inactive: 8.67%.
With `Cc1ccc(-n2ncnc2-c2cc3c(n(-c4ccccc4)c2=O)CC(C)(C)CC3=O)c(C)c1` the Potency was inconclusive: 79.4 µM [inhibitor, partial curve, poor fit].
For `COc1cc(NC(=S)N2CCCCC2C)cc(OC)c1OC` (centres undefined), the “activity change, negative = inhibition” value was inactive: -9.95%.
`CCn1ncc(C(=O)N[C@@H]2CN(c3ncccn3)C[C@H]2CO)c1C` was tested, and the “activity change, negative = inhibition” value was inactive: 9.31%.
In the case of `Cc1nc(N)sc1-c1ccnc(Nc2ccc(N3CCOCC3)cc2)n1`, the Potency is reported as inconclusive: 5.44 µM [inhibitor, partial curve].
`Cc1ccc(-c2csc(C(O)c3ccccc3)n2)cc1C` (centres undefined) was tested, and the Potency was inconclusive: 50.1 µM [inhibitor, partial curve, poor fit].
`COc1cccc(C(=O)CN2CCN(S(=O)(=O)c3ccc(Cl)cc3)CC2)c1` was tested, and the Potency was active: 56.2 µM.
With `Cc1ccc(C(=O)N2CCN(Cc3ncc(C(C)(C)C)o3)CC2)cc1` the “activity change, negative = inhibition” value was inactive: 0.208%.
For `COc1ccccc1-c1[nH]nc2ncc(-c3ccccc3C)nc12`, the “activity change, negative = inhibition” value was inactive: 23.2% [at 176 µM].
With `Cc1cc(N2CCCN(c3nccc(-c4c(C)nn(C)c4C)n3)CC2)ccn1` the “activity change, negative = inhibition” value was inactive: 61.8%.
With `Cc1ccc(-n2c(N)c(C(=O)NCc3ccco3)sc2=S)cc1` the Potency was inconclusive: 50.1 µM [inhibitor, partial curve, poor fit].
`CCNc1nc(SCC(=O)NC(=O)NC(C)C)nc2ccccc12` was tested, and the Potency was inconclusive: 79.4 µM [inhibitor, partial curve, poor fit].
In the case of `COc1ccc(Nc2nc(-c3cccs3)cs2)c(OC)c1`, the Potency is reported as inconclusive: 1.12 µM [inhibitor, full curve].
For `Cc1cc(C)c2c(CN3CCC(C)CC3)cc(=O)oc2c1`, the Potency was active: 44.7 µM.
`O=C(c1ccc2[nH]ccc2c1)N1CCN(Cc2ccccc2)CC1` was tested, and the “activity change, negative = inhibition” value was inactive: -54.9%.
In the case of `CCOc1ccc(N=C2NC(=O)S/C2=C\c2ccc(N(C)C)cc2)cc1`, the “activity change, negative = inhibition” value is reported as inactive: 0%.
For `NC(=O)NC(=O)C(Nc1ccc(N2CCCCC2)cc1)c1ccccc1` (centres undefined), the “activity change, negative = inhibition” value was inactive: -27.1%.
With `CN(C)c1nc(N)nc(CSc2nc3cc(Cl)ccc3o2)n1` the Potency was inconclusive: 126 µM [inhibitor, single point].
`COCCNC(=O)C1Nc2ccc(C(F)(F)F)cc2C2C=CCC12` (centres undefined) was tested, and the Potency was inconclusive: 35.5 µM [inhibitor, partial curve, poor fit].
`COc1ccc(-c2nc(-c3cccc(C)c3)nc(N3CCN(C)CC3)c2C#N)cc1` was tested, and the Potency was inconclusive: 44.7 µM [inhibitor, partial curve, poor fit].
In the case of `Cc1ccc(C)c(Cn2c3ccccc3c3cnn(CC(=O)N4CCCCC4)c(=O)c32)c1`, the “activity change, negative = inhibition” value is reported as inactive: -23.9%.
For `CC1CCCCC1NC(=O)COC(=O)c1c2c(nc3ccccc13)/C(=C/c1ccco1)CC2` (centres undefined), the Potency was inconclusive: 44.7 µM [inhibitor, partial curve, poor fit].
In the case of `O=C(CC1SC(=O)N(c2ccccc2)C1=O)Nc1ccc(Cl)cc1` (centres undefined), the Potency is reported as inconclusive: 28.2 µM [inhibitor, partial curve, poor fit].
`O=c1cc(N/N=C/c2ccccc2)[nH]c(=O)[nH]1` was tested, and the Potency was inconclusive: 3.16 µM [inhibitor, full curve, poor fit].
For `CCN(CC)CCCN(Cc1cc2cc(OC)ccc2[nH]c1=O)C(=O)Nc1ccc(F)cc1`, the “activity change, negative = inhibition” value was inactive: 0%.
For `O=C(NCc1cccc(CN2CCOCC2)c1)c1cc2ccccc2oc1=O`, the “activity change, negative = inhibition” value was inactive: -18.9%.
For `O=C(Nc1cccc(S(=O)(=O)NCc2ccco2)c1)c1cccc(Cl)c1`, the Potency was inconclusive: 0.282 µM [inhibitor, single point].
In the case of `Nc1[nH][nH]c(=O)c1N=Nc1ccccc1`, the Potency is reported as inconclusive: 70.8 µM [inhibitor, partial curve, poor fit].
In the case of `CCN(C(=O)CSc1nc(C)nc2sc(C)c(C)c12)c1ccc(F)cc1`, the “activity change, negative = inhibition” value is reported as inactive: 1.77%.
`Cc1ccc2c(=O)cc(C(=O)N3CCN(C(c4ccccc4)c4ccccc4)CC3)oc2c1` was tested, and the “activity change, negative = inhibition” value was inactive: -2.18%.
